Laboratory results from the supplement of paper PMC10849652.
The list shows a part of the results.

Protein sequences, listed by entry. Tags and fused reporters are not part of them. Lines headed by an entry give the natural chain unless they say otherwise; changes in a name come on top.
UniProt Q9Y5Y2: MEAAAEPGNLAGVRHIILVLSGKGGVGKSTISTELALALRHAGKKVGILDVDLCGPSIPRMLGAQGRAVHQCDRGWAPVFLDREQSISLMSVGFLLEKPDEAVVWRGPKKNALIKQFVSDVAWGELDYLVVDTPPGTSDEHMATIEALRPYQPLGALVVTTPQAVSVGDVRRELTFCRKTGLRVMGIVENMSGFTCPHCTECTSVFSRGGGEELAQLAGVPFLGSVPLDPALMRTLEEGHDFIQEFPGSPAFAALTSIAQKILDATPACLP
UniProt P78316: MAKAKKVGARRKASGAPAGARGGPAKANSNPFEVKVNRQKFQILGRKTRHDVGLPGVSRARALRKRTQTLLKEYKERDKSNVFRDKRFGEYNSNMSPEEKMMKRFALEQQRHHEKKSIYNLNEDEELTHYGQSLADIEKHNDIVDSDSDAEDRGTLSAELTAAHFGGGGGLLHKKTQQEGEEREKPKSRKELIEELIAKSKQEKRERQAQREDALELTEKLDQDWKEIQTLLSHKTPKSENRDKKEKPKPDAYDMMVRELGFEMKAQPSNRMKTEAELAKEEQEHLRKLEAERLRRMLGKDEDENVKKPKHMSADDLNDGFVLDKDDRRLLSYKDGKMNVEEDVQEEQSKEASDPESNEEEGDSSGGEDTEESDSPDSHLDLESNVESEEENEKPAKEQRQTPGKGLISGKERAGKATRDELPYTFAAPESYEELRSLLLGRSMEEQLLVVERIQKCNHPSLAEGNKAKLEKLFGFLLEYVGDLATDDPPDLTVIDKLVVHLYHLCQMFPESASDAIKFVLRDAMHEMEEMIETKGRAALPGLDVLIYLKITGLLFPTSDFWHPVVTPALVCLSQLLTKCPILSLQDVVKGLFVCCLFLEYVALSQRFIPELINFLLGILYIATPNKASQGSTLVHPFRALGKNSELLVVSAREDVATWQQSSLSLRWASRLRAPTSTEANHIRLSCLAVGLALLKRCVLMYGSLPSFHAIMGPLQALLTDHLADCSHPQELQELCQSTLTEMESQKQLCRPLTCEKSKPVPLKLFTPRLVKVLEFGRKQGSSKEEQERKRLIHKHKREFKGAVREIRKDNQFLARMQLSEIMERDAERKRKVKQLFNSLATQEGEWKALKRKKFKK
UniProt Q9BRJ7: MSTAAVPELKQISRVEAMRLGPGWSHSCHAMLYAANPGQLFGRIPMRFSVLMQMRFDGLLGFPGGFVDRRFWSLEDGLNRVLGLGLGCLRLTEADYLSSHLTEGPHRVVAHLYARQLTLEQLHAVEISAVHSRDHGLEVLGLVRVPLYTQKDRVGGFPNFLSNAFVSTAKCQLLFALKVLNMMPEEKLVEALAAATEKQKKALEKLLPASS
UniProt P46087: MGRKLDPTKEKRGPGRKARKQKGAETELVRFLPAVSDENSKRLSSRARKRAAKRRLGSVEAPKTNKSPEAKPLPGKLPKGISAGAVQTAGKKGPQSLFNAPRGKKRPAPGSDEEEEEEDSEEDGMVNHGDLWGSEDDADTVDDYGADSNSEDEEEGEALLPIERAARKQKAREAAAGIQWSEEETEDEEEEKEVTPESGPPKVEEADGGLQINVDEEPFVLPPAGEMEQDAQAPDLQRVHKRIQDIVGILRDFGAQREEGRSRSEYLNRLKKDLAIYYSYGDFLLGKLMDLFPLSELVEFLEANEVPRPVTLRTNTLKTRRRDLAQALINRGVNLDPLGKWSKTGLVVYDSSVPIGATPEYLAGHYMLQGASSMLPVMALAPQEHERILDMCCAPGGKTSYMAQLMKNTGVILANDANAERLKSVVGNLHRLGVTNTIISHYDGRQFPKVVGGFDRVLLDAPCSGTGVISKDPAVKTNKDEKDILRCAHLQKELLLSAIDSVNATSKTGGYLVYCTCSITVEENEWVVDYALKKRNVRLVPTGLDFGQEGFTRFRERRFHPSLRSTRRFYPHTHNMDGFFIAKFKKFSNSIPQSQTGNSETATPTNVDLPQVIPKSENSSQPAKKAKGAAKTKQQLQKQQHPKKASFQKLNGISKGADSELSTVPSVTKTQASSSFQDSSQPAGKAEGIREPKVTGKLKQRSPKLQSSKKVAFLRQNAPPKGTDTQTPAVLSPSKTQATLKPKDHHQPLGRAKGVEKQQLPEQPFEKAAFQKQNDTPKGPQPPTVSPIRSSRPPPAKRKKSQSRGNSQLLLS
UniProt Q8TAT6: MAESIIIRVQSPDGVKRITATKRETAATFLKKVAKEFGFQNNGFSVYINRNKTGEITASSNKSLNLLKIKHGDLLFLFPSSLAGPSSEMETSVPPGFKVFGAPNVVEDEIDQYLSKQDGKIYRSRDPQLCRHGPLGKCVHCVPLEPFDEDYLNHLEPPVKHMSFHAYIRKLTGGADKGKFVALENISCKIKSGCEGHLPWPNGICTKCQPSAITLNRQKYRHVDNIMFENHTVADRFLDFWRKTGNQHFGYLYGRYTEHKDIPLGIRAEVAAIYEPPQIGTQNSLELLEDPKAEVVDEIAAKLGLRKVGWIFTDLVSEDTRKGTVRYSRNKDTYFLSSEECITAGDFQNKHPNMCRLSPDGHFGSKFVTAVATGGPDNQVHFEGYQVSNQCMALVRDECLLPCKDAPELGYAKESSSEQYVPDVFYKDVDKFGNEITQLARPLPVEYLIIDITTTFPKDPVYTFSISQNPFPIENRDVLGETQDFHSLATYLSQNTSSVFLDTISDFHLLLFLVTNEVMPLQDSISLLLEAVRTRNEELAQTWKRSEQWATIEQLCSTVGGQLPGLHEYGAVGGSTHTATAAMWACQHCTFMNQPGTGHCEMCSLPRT
UniProt Q9BSC4: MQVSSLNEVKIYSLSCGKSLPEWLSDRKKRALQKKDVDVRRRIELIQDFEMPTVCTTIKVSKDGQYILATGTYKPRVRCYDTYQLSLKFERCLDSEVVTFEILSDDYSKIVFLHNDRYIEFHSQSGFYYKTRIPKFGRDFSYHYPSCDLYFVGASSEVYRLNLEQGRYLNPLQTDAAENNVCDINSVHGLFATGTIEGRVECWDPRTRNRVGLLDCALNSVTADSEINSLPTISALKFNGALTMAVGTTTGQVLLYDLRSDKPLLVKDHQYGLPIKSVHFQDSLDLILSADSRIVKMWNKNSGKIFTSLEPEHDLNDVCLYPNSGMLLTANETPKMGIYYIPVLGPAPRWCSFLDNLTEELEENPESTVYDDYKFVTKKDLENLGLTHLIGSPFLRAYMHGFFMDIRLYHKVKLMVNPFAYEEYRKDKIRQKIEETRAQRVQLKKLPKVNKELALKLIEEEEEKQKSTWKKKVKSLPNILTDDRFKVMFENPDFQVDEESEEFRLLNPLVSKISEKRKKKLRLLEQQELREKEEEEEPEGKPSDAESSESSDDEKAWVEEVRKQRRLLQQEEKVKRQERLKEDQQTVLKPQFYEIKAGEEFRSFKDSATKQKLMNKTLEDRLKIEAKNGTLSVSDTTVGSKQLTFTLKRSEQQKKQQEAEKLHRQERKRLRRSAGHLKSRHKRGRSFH
UniProt A8MXV4: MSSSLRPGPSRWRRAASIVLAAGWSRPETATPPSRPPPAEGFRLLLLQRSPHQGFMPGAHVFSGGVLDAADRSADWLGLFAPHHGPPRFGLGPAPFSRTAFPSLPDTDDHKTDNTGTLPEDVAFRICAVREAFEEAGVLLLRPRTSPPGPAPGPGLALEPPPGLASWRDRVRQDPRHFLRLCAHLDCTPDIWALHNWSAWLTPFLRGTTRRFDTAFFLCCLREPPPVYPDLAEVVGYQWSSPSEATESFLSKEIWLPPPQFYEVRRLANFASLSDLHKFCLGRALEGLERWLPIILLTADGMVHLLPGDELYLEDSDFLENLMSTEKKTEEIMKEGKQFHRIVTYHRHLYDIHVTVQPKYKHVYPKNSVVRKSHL
UniProt Q9BW91: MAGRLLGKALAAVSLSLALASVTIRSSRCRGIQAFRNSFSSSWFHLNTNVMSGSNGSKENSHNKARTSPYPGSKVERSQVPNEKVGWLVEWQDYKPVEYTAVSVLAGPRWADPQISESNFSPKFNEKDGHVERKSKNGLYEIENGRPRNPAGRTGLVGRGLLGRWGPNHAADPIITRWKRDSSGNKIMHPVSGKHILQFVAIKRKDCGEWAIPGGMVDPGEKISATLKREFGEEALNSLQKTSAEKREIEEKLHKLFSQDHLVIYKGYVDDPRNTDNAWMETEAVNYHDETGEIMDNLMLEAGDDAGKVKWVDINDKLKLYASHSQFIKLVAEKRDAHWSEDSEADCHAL
UniProt Q9Y5B8, whole entry, looked up: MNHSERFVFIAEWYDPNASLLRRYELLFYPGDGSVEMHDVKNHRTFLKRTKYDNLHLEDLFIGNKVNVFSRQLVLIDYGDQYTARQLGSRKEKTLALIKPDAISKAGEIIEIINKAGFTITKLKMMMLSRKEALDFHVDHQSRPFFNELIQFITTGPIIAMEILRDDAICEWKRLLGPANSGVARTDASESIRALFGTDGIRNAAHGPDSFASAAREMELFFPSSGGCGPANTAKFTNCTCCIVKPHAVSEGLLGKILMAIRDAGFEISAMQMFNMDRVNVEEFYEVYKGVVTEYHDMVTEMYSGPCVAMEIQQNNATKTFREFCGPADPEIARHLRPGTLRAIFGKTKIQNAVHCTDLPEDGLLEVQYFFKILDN
UniProt Q8IVD9: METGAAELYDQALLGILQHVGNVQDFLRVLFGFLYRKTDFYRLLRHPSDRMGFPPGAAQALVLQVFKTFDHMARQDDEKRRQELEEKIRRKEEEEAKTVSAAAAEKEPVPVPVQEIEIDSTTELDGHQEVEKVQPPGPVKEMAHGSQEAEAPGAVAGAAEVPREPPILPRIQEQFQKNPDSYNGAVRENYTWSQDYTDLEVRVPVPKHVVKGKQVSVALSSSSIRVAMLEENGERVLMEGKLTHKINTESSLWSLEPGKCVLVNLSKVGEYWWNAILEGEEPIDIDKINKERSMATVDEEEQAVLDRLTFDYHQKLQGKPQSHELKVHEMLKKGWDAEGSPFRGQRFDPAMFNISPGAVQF
UniProt Q96MG7: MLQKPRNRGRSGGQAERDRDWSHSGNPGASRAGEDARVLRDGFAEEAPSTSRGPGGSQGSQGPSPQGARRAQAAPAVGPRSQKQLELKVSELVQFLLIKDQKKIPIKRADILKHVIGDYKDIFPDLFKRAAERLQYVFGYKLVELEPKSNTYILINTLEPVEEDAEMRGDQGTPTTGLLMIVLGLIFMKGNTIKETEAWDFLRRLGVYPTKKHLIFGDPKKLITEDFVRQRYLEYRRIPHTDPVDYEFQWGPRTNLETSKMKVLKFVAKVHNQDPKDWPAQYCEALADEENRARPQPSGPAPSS
UniProt Q9BVI4: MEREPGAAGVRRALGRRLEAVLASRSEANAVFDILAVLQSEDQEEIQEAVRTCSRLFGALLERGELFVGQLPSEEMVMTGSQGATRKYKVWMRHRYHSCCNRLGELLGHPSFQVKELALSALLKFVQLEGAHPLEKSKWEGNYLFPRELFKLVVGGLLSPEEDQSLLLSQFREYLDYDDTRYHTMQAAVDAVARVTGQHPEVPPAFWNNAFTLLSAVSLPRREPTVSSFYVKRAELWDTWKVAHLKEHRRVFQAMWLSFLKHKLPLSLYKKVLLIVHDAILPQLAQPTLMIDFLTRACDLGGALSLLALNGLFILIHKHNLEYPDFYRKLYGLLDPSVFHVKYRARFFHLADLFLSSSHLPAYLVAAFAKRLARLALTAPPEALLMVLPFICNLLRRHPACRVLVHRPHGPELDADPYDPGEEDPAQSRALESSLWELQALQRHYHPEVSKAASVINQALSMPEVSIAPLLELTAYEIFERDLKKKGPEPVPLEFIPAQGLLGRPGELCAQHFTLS
UniProt O75607: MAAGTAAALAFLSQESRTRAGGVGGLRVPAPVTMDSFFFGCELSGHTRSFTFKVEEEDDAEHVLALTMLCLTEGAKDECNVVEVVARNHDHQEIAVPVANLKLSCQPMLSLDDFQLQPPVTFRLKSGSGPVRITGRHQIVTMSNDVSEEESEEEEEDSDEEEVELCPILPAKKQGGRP
UniProt Q13287: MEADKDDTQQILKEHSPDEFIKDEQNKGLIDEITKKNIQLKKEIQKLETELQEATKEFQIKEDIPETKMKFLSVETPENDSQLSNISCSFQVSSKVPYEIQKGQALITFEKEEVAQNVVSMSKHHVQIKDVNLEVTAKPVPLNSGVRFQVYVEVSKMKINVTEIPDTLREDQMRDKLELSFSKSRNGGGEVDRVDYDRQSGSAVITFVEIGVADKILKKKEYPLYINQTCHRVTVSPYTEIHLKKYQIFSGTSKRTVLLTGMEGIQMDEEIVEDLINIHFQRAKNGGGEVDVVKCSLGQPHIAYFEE
UniProt Q9Y3C1: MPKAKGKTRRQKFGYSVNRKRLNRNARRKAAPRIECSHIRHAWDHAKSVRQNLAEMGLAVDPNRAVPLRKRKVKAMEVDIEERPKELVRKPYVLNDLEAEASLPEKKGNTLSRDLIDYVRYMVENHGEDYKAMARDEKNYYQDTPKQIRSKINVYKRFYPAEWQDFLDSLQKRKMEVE

What was measured:
Test in all cases: log2 fold change, soluble protein after heating vs DMSO (PISA); higher = thermal stabilisation; K562 lysate, 10 uM; active = over 0.2 and 3.5 SD of the protein, either way, in both replicates (recomputed)
lapatinib = compound: CS(=O)(=O)CCNCc1ccc(-c2ccc3ncnc(Nc4ccc(OCc5cccc(F)c5)c(Cl)c4)c3c2)o1 [lapatinib]
Outline: (§1)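 To prepare the extract, K562 pellets were dounce-homogenised in PBS pH 7.4 with 1 mM MgCl2, giving crude material at 1 mg/mL protein. This was treated with 10 μM compound for 30 min, then heated in aliquots for 3 min over 48°C-58°C before pooling and addition of NP-40 to 0.5% at 4°C. Centrifugation at 21,000xg for 90 min left soluble protein in the supernatant, which TMTpro 16plex LC-MS/MS quantified with equalised channel sums. Results are log-two fold changes in thermal stability compared with solvent controls, from duplicates.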

pictilisib = compound: CS(=O)(=O)N1CCN(Cc2cc3nc(-c4cccc5[nH]ncc45)nc(N4CCOCC4)c3s2)CC1 [pictilisib]
Outline: as §1

crizotinib = compound: C[C@@H](Oc1cc(-c2cnn(C3CCNCC3)c2)cnc1N)c1c(Cl)ccc(F)c1Cl [crizotinib]
Outline: as §1

[1] = compound: C[C@H](C1=CC=C(C=C1)C(=O)NC2=C3C=CNC3=NC=C2)N
Outline: as §1

duvelisib = compound: C[C@H](Nc1ncnc2nc[nH]c12)c1cc2cccc(Cl)c2c(=O)n1-c1ccccc1 [duvelisib]
Outline: as §1

gandotinib = compound: Cc1cc(Nc2cc(CN3CCOCC3)c3nc(C)c(Cc4ccc(Cl)cc4F)n3n2)n[nH]1 [gandotinib]
Outline: as §1

tozasertib = compound: Cc1cc(Nc2cc(N3CCN(C)CC3)nc(Sc3ccc(NC(=O)C4CC4)cc3)n2)n[nH]1 [tozasertib]
Outline: as §1

doramapimod = compound: Cc1ccc(-n2nc(C(C)(C)C)cc2NC(=O)Nc2ccc(OCCN3CCOCC3)c3ccccc23)cc1 [doramapimod]
Outline: as §1

bafetinib = compound: Cc1ccc(NC(=O)c2ccc(CN3CC[C@H](N(C)C)C3)c(C(F)(F)F)c2)cc1Nc1nccc(-c2cncnc2)n1 [bafetinib]
Outline: as §1

[2] = compound: Cc1cccc(CC(=O)N2CCc3c2ccc(-c2cn(C)c4ncnc(N)c24)c3F)n1
Outline: as §1

nilotinib = compound: Cc1cn(-c2cc(NC(=O)c3ccc(C)c(Nc4nccc(-c5cccnc5)n4)c3)cc(C(F)(F)F)c2)cn1 [nilotinib]
Outline: as §1

[3] = compound: Cc1nc(Nc2n[nH]c3c2CN(C(=O)N[C@H](CN(C)C)c2ccccc2)C3(C)C)c2sccc2n1
Outline: as §1

dasatinib = compound: Cc1nc(Nc2ncc(C(=O)Nc3c(C)cccc3Cl)s2)cc(N2CCN(CCO)CC2)n1 [dasatinib]
Outline: as §1

[4] = compound: Cc1ncc(-c2ccnc(Nc3ccc(S(C)(=O)=O)cc3)n2)n1C(C)C
Outline: as §1

[5] = compound: Cn1cc(-c2ccc3c(c2)CCN3C(=O)Cc2cccc(C(F)(F)F)c2)c2c(N)ncnc21
Outline: as §1

quisinostat = compound: Cn1cc(CNCC2CCN(c3ncc(C(=O)NO)cn3)CC2)c2ccccc21 [quisinostat]
Outline: as §1

tipifarnib = compound: Cn1cncc1[C@@](N)(c1ccc(Cl)cc1)c1ccc2c(c1)c(-c1cccc(Cl)c1)cc(=O)n2C [tipifarnib]
Outline: as §1

[6] = compound: NC(=O)Nc1cc(-c2cccc(F)c2)sc1C(=O)N[C@H]1CCCNC1
Outline: as §1

[7] = compound: NC(=O)c1cnc(N[C@@H]2CCCC[C@@H]2N)nc1Nc1cccc(-n2nccn2)c1
Outline: as §1

[8] = compound: NC1(c2ccc(-c3nc4ccn5c(=O)[nH]nc5c4cc3-c3ccccc3)cc2)CCC1
Outline: as §1

Measured: log2 fold change

NUBP2 (UniProt Q9Y5Y2)
inactive: lapatinib -0.037 | pictilisib 0.023 | crizotinib -0.004 | [1] 0.214 | duvelisib -0.003 | gandotinib -0.072 | tozasertib 0.013 | doramapimod 0.003 | bafetinib 0.009 | [2] -0.063 | nilotinib 0.052 | [3] 0.025 | dasatinib -0.002 | [4] 0.023 | [5] 0.027 | quisinostat -0.047 | tipifarnib -0.001 | [6] 0.055 | [7] -0.024 | [8] -0.088

NOP14 (UniProt P78316)
inactive: lapatinib -0.025 | pictilisib 0.016 | crizotinib -0.042 | [1] -0.065 | duvelisib -0.098 | gandotinib -0.124 | tozasertib -0.007 | doramapimod -0.008 | bafetinib -0.006 | [2] 0.076 | nilotinib -0.066 | [3] 0.004 | dasatinib -0.037 | [4] 0.003 | [5] 0.011 | quisinostat 0.026 | tipifarnib 0.025 | [6] 0.058 | [7] 0.013 | [8] 0.011

NUDT16L1 (UniProt Q9BRJ7)
inactive: lapatinib -0.001 | pictilisib 0 | crizotinib 0.017 | [1] 0.002 | duvelisib 0.057 | gandotinib -0.177 | tozasertib 0.059 | doramapimod -0.01 | bafetinib -0.018 | [2] 0.056 | nilotinib -0.033 | [3] 0.043 | dasatinib 0.035 | [4] -0.002 | [5] -0.058 | quisinostat 0.105 | tipifarnib 0.017 | [6] 0.025 | [7] 0.006 | [8] 0.021

NOP2 isoform 4 (UniProt P46087)
inactive: lapatinib -0.021 | pictilisib 0.009 | crizotinib -0.033 | [1] -0.037 | duvelisib 0.023 | gandotinib -0.024 | tozasertib 0.032 | doramapimod 0.002 | bafetinib -0.026 | [2] 0.08 | nilotinib 0.035 | [3] -0.004 | dasatinib 0.004 | [4] -0.005 | [5] 0.004 | quisinostat -0.025 | tipifarnib 0.016 | [6] -0.002 | [7] 0.008 | [8] -0.014

NPLOC4 isoform 2 (UniProt Q8TAT6)
inactive: lapatinib 0.022 | pictilisib 0.003 | crizotinib -0.023 | [1] -0.087 | duvelisib 0.01 | gandotinib 0.046 | tozasertib -0.003 | doramapimod 0.056 | bafetinib -0.019 | [2] 0.007 | nilotinib -0.005 | [3] 0.007 | dasatinib 0.019 | [4] 0.007 | [5] 0.004 | quisinostat -0.037 | tipifarnib 0 | [6] -0.006 | [7] 0.018 | [8] -0.023

NOL10 (UniProt Q9BSC4)
inactive: lapatinib -0.004 | pictilisib 0.017 | crizotinib -0.049 | [1] 0.119 | duvelisib 0.125 | gandotinib -0.151 | tozasertib 0.015 | doramapimod 0.042 | bafetinib -0.1 | [2] -0.055 | nilotinib -0.17 | [3] -0.096 | dasatinib -0.025 | [4] 0.022 | [5] 0.077 | quisinostat 0.006 | tipifarnib 0.038 | [6] 0.019 | [7] 0.007 | [8] 0.175

NUDT19 (UniProt A8MXV4)
inactive: lapatinib 0.016 | pictilisib -0.009 | crizotinib -0.015 | [1] -0.004 | duvelisib 0.012 | gandotinib -0.012 | tozasertib -0.05 | doramapimod -0.029 | bafetinib 0.003 | [2] -0.05 | nilotinib -0.003 | [3] -0.029 | dasatinib -0.025 | [4] -0.028 | [5] 0.005 | quisinostat -0.016 | tipifarnib 0.022 | [6] -0.012 | [7] 0 | [8] 0.015

NUDT9 (UniProt Q9BW91)
inactive: lapatinib -0.016 | pictilisib 0 | crizotinib 0.035 | [1] 0.002 | duvelisib 0.014 | gandotinib 0.04 | tozasertib -0.017 | doramapimod -0.019 | bafetinib 0.015 | [2] 0.023 | nilotinib -0.036 | [3] -0.01 | dasatinib 0.017 | [4] 0.009 | [5] 0.03 | quisinostat -0.007 | tipifarnib -0.01 | [6] -0.016 | [7] -0.018 | [8] 0.023

NME7 (UniProt Q9Y5B8)
inactive: lapatinib 0.031 | pictilisib -0.021 | crizotinib -0.038 | [1] -0.036 | duvelisib 0.018 | gandotinib -0.005 | tozasertib 0.044 | doramapimod -0.027 | bafetinib 0.003 | [2] 0.01 | nilotinib -0.085 | [3] 0.085 | dasatinib -0.014 | [4] -0.031 | [5] 0.022 | quisinostat -0.037 | tipifarnib 0.061 | [6] 0.049 | [7] -0.003 | [8] -0.036

NUDCD3 (UniProt Q8IVD9)
inactive: lapatinib -0.013 | pictilisib -0.033 | crizotinib -0.012 | [1] 0.013 | duvelisib -0.025 | gandotinib 0.011 | tozasertib 0.017 | doramapimod 0.038 | bafetinib -0.013 | [2] 0.012 | nilotinib -0.008 | [3] 0.037 | dasatinib 0.022 | [4] -0.02 | [5] 0.02 | quisinostat -0.023 | tipifarnib -0.054 | [6] 0.002 | [7] -0.023 | [8] 0.012

NSMCE3 (UniProt Q96MG7)
inactive: lapatinib 0.033 | pictilisib 0 | crizotinib -0.099 | [1] -0.021 | duvelisib -0.043 | gandotinib -0.055 | tozasertib -0.032 | doramapimod -0.004 | bafetinib -0.001 | [2] 0.037 | nilotinib -0.005 | [3] -0.043 | dasatinib 0.068 | [4] -0.065 | [5] 0.043 | quisinostat -0.092 | tipifarnib -0.021 | [6] -0.007 | [7] 0.009 | [8] -0.042

NUP155 (UniProt O75694)
inactive: lapatinib -0.003 | pictilisib -0.055 | crizotinib -0.139 | [1] 0.004 | duvelisib 0.07 | gandotinib -0.12 | tozasertib 0.043 | doramapimod 0.101 | bafetinib -0.018 | [2] 0.032 | nilotinib 0.052 | [3] 0.045 | dasatinib -0.015 | [4] -0.074 | [5] 0.018 | quisinostat -0.037 | tipifarnib -0.071 | [6] 0.074 | [7] 0.023 | [8] 0.032

NOC4L (UniProt Q9BVI4)
inactive: lapatinib -0.023 | pictilisib 0.037 | crizotinib -0.035 | [1] 0.071 | duvelisib -0.016 | gandotinib -0.166 | tozasertib 0.027 | doramapimod 0.022 | bafetinib -0.171 | [2] -0.029 | nilotinib 0.008 | [3] 0 | dasatinib -0.04 | [4] 0.007 | [5] 0.017 | quisinostat -0.043 | tipifarnib 0.015 | [6] 0.079 | [7] -0.04 | [8] -0.008

2 records drawn at random from those above:
NUDCD3 (UniProt Q8IVD9)
inactive: lapatinib -0.013 | pictilisib -0.033 | crizotinib -0.012 | [1] 0.013 | duvelisib -0.025 | gandotinib 0.011 | tozasertib 0.017 | doramapimod 0.038 | bafetinib -0.013 | [2] 0.012 | nilotinib -0.008 | [3] 0.037 | dasatinib 0.022 | [4] -0.02 | [5] 0.02 | quisinostat -0.023 | tipifarnib -0.054 | [6] 0.002 | [7] -0.023 | [8] 0.012

NME7 (UniProt Q9Y5B8)
inactive: lapatinib 0.031 | pictilisib -0.021 | crizotinib -0.038 | [1] -0.036 | duvelisib 0.018 | gandotinib -0.005 | tozasertib 0.044 | doramapimod -0.027 | bafetinib 0.003 | [2] 0.01 | nilotinib -0.085 | [3] 0.085 | dasatinib -0.014 | [4] -0.031 | [5] 0.022 | quisinostat -0.037 | tipifarnib 0.061 | [6] 0.049 | [7] -0.003 | [8] -0.036

Next part

NPM3 (UniProt O75607)
inactive: lapatinib 0.087 | pictilisib 0.053 | crizotinib -0.02 | [1] -0.201 | duvelisib 0.014 | gandotinib 0.068 | tozasertib -0.036 | doramapimod 0.027 | bafetinib 0.04 | [2] 0.164 | nilotinib -0.039 | [3] -0.012 | dasatinib 0.065 | [4] 0.049 | [5] 0.024 | quisinostat -0.024 | tipifarnib -0.027 | [6] 0.019 | [7] 0.03 | [8] -0.029

NMI (UniProt Q13287)
inactive: lapatinib -0.021 | pictilisib -0.022 | crizotinib 0.015 | [1] 0.006 | duvelisib -0.005 | gandotinib -0.006 | tozasertib 0.007 | doramapimod -0.03 | bafetinib -0.001 | [2] -0.041 | nilotinib -0.008 | [3] -0.013 | dasatinib -0.012 | [4] -0.001 | [5] 0.002 | quisinostat 0.017 | tipifarnib 0.012 | [6] -0.006 | [7] 0.013 | [8] -0.008

NOP16 (UniProt Q9Y3C1)
inactive: lapatinib 0.006 | pictilisib -0.035 | crizotinib 0.002 | [1] 0.048 | duvelisib 0.045 | gandotinib -0.097 | tozasertib 0.035 | doramapimod -0.005 | bafetinib -0.026 | [2] -0.085 | nilotinib -0.009 | [3] 0.014 | dasatinib 0.019 | [4] 0.026 | [5] -0.041 | quisinostat 0.003 | tipifarnib 0.009 | [6] 0.011 | [7] 0.003 | [8] 0.04
